We go through 2 molecules from paper PMC4098787.

Chains of the proteins cited; added tags and fusions are not shown. Lines headed by an entry give the natural chain unless they say otherwise; changes in a name come on top.
UniProt Q9Y3Z3: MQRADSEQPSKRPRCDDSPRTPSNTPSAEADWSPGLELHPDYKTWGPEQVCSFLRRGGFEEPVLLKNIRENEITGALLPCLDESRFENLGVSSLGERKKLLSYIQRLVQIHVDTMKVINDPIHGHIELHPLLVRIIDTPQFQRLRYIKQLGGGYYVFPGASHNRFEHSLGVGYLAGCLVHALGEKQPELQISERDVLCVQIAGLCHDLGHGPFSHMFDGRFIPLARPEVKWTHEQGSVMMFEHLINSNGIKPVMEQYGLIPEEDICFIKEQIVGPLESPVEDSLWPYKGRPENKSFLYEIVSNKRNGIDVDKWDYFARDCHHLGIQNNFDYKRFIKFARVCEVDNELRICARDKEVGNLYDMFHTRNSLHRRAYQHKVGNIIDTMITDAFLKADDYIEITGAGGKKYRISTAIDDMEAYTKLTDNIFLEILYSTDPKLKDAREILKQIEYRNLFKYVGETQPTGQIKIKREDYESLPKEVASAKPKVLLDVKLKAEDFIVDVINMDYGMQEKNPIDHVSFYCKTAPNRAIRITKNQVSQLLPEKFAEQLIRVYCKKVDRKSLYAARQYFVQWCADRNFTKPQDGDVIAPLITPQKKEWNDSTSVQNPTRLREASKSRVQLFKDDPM
UniProt P52294: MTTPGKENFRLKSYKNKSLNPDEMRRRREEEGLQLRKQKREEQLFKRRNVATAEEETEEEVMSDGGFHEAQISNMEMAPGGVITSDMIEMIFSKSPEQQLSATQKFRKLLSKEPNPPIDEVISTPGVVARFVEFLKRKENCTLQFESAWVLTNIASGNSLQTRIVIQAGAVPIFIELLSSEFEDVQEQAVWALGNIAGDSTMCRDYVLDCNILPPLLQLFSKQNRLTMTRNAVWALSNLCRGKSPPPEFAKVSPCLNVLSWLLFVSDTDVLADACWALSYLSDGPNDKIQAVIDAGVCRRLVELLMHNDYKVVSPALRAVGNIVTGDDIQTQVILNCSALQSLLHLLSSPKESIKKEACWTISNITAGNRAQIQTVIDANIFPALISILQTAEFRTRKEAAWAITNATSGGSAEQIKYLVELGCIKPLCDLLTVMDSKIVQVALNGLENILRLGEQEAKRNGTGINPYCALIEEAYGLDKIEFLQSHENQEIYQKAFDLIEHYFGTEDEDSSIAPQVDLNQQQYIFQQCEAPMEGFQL

What all share (assay): pull-down; GST pull-down from lysates of co-transfected 293 T cells, 48 h after transfection; glutathione-sepharose beads 3 h at 4°C; lysis buffer 50 mM Tris-HCl pH 7.4, 150 mM NaCl, 5 mM EDTA, 5% glycerol, 1% Triton X-100; western blot with anti-HA or anti-Flag
In assay [1] the target is GST-tagged SAMHD1 K11A mutant (human) (UniProt Q9Y3Z3).
The target in assay [2] is GST-tagged wild type SAMHD1 (sterile alpha motif domain and HD domain 1) (human) (UniProt Q9Y3Z3).
The target in assay [3] is GST-tagged SAMHD1 K11A mutant (human) (UniProt Q9Y3Z3). This is another data set of the same source.
Assay [4] deals with GST-tagged wild type SAMHD1 (sterile alpha motif domain and HD domain 1) (human) (UniProt Q9Y3Z3). The source holds these as a separate data set.

Where two headings read alike, the source gives them in different places. These are yes or no findings as the source states them, for the method shown. In cells and extracts the contact can be indirect. Some binding calls cover weakened binding; strength is not graded here. For some of these results: Tags and fused reporters may be left off the sequences shown.

Turning to “HA-tagged karyopherin α1 (KPNA1) (from UniProt P52294 1-538)”, the binding result in assay [1] and in assay [2] was “binds” throughout.

B1: Flag-tagged Vpx protein of HIV-2ROD (protein, UniProt P06939 1-112)
chain: MTDPRETVPPGNSGEETIGEAFAWLNRTVEAINREAVNHLPRELIFQVWQRSWRYWHDEQGMSESYTKYRYLCIIQKAVYMHVRKGCTCLGRGHGPGGWRPGPPPPPPPGLV
On to B1, for which the binding entry in assay [3] and in assay [4] was “binds” throughout.
